The values that follow come from article PMC7819943, “Rice protein-binding microarrays: a tool to detect cis-acting elements near promoter regions in rice”.

Protein sequences, listed by entry. Tags and fused reporters are not part of them.
UniProt Q0JBA9, entry or part of it: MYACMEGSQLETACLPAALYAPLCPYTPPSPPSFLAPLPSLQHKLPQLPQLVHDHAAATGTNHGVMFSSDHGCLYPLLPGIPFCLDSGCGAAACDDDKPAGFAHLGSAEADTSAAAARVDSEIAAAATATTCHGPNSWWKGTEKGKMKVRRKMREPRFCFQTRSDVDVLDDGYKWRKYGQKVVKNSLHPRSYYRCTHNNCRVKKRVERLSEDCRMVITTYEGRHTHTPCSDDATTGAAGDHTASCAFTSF

The list shows a part of the results.

This assay deals with OsWRKY34 (Oryza sativa, UniProt Q0JBA9 1-250). The assay is described as follows: protein-binding microarray (RPBM); PBS, 2% BSA, 51.3 ng/ul salmon testes DNA, 50 uM zinc acetate, 200 nM TF, 25 C, 1 h; high values mean tight binding. Particulars: protein: recombinant; tags: N-terminal polyhistidine and DsRed monomer fusion (pET32a); label: CyDye5-dUTP incorporated in the synthesized complementary strand; 3' TTTTT single-stranded linker to array surface; dsDNA, one strand shown. An outline of the steps:
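Per-feature fluorescence intensity (arbitrary units), read on an Axon 4000B scanner, is the binding signal. Transcription factors carrying an N-terminal polyhistidine tag and DsRed fusion were expressed in E. coli BL21-CodonPlus and purified on Ni–NTA. A custom Agilent array, made double-stranded by primer extension with Cy5-dUTP and blocked with 2% BSA, was incubated with 200 nM protein in PBS, 2% BSA, salmon testes DNA and 50 µM zinc acetate at 25 °C for 1 h and then washed.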
For the sequence “GCGCGCGCCACCGCACCCGCGACGCCGACGTGTTCATGACCGGAGTCACCTAGTGCAG”, the binding signal is 8820 fluorescence intensity (a.u.).
As to “CACTGCTTCTCTCTCTCTCCAACACAGCACCTAGTACCGCCGGAGTCACCTAGTGCAG”, the binding signal was 8540 fluorescence intensity (a.u.).
With “ACGCTTAACCTTAGAATTCTTTAGAGATCGGCTTCCGAAACGGAGTCACCTAGTGCAG”, the binding signal was 8030 fluorescence intensity (a.u.).
On to “TTACAGAAACATTACCTACAATGTCAATGACTATTTGTATCGGAGTCACCTAGTGCAG”, for which the binding signal was 8480 fluorescence intensity (a.u.).
The same measure for “GACCTGTCTACCGCCGCCCTAGTGACTAATGTTGACCACACGGAGTCACCTAGTGCAG”: 12000 fluorescence intensity (a.u.); for “TTTAATGTTCAGTCCTATGTACAGTACCATCCATTGTTTTCGGAGTCACCTAGTGCAG”: 8430 fluorescence intensity (a.u.).
“CTTCTAATACGCCCCTTAGTTTTGGGATTTCTTACGAGACCGGAGTCACCTAGTGCAG”: the binding signal is 8420 fluorescence intensity (a.u.).
Regarding “CTGGAATTTCACATGATCCTAGTCGTACTTTCTACCAGCACGGAGTCACCTAGTGCAG”, the binding signal is 8640 fluorescence intensity (a.u.).
The same measure for “TTGATGGTTTTAATATATGTTATTATTTTTATCCTATCTTCGGAGTCACCTAGTGCAG”: 8520 fluorescence intensity (a.u.); for “AATTTAACTTTCTCGTTTACCGTTATCACGCTTCTCAAACCGGAGTCACCTAGTGCAG”: 9550 fluorescence intensity (a.u.).
The same measure for “CTCCTGTTTCCGTTAGTCTTCGTGGGTGGGCCTACAAGCACGGAGTCACCTAGTGCAG”: 8260 fluorescence intensity (a.u.); for “CGTTTCGCGTTGGTTCCTCTGTCTTATTCAACGTGAGTATCGGAGTCACCTAGTGCAG”: 11600 fluorescence intensity (a.u.).
Take “TATTAGATGTGTCTTGTTTAGTCCATATTTTCAGGTTGTTCGGAGTCACCTAGTGCAG”: the binding signal is 10000 fluorescence intensity (a.u.).
With “ATAGCTAATATCTGTTTTGTCTAGAGTTGACCATGCAAGACGGAGTCACCTAGTGCAG” the figure was 8520 fluorescence intensity (a.u.).
With “TTTGATATTTTTTAACAAATATTTGACCATCCGTCTTATTCGGAGTCACCTAGTGCAG”, the binding signal was 8560 fluorescence intensity (a.u.).
On to “GTGTGCTGTACTGCTGTTCCTTCGAGCCATTGACCGGTTGCGGAGTCACCTAGTGCAG”, for which the binding signal is 8940 fluorescence intensity (a.u.).
On to “ACGGCCAGGCAAGCAAGCAAACGCCGCGGCTACCAATACCCGGAGTCACCTAGTGCAG”, for which the binding signal is 39600 fluorescence intensity (a.u.).
As to “CCTTTTTTTTTCTATTTCTATATTTTTAAAATCTTACGTACGGAGTCACCTAGTGCAG”, the binding signal is 10900 fluorescence intensity (a.u.).
Take “ACCTCTTCCTAACTAACCAGTCTGGCGAAAATCATTTTTTCGGAGTCACCTAGTGCAG”: the binding signal is 9960 fluorescence intensity (a.u.).
“AATTAGTTTCTTGCTTCTTCTTTTTTCTTTTCTTTTTCATCGGAGTCACCTAGTGCAG”: the binding signal was 8210 fluorescence intensity (a.u.).
Take “TTGTCAAACTATGGTACGTCGTTCATATCCGATTCCCGTTCGGAGTCACCTAGTGCAG”: the binding signal is 9380 fluorescence intensity (a.u.).
“CCTTGTCTATGTTTCCACTGGTCGTGCTGGTCTCGGAGTACGGAGTCACCTAGTGCAG”: the binding signal is 8680 fluorescence intensity (a.u.).
With “TGGGGAGGCCATTGCAATCTTCAGTCTCCAGGTCTTCTTCCGGAGTCACCTAGTGCAG”, the binding signal is 8790 fluorescence intensity (a.u.).
With “GGAGGCGGAGGCGGGGCCCGTGGCGGAGGCGGAGGCGGCGCGGAGTCACCTAGTGCAG” the figure was 8170 fluorescence intensity (a.u.); with “TGCAATGTTGTTTATTCATTTTGGTTTTCTTTTTTCTAATCGGAGTCACCTAGTGCAG”, 8610 fluorescence intensity (a.u.); with “TTGTAAAGCTGCTGTTCTGTTCTTGTCCCTGGTGTGTGGGCGGAGTCACCTAGTGCAG”, 8270 fluorescence intensity (a.u.).
For the sequence “GTCACATTTTAAATGCAGTTGAGGGTTTATGTGTTCAATACGGAGTCACCTAGTGCAG”, the binding signal was 8280 fluorescence intensity (a.u.).
For “CCAACCGTGTTATAAGTCGATTTAATTATTCTCTAGCTACCGGAGTCACCTAGTGCAG”, the binding signal is 9210 fluorescence intensity (a.u.).
Regarding “CAGCGACGGTGGGGAGGTGGGCGTGGGCGGTTGCCGGCGGCGGAGTCACCTAGTGCAG”, the binding signal is 11200 fluorescence intensity (a.u.).
The same measure for “CGACACTCCACGTTCCAGTCGTCGCAGTCCCGGTGCGCGGCGGAGTCACCTAGTGCAG”: 8610 fluorescence intensity (a.u.); for “GGCGCGGCAGTCCGCTCAATCCCTCATCTTCTTCTGTCCTCGGAGTCACCTAGTGCAG”: 11200 fluorescence intensity (a.u.); for “CCGGACATGATGCCCAAACATTTCCGCATTTCCGCTCCTCCGGAGTCACCTAGTGCAG”: 9360 fluorescence intensity (a.u.).
Take “TGGGTTTGTGGGTTATGTTTCGGTGCGTGCCGATAGTATACGGAGTCACCTAGTGCAG”: the binding signal was 14300 fluorescence intensity (a.u.).
With “ATTTGTCAGTTACTAAACAGTACCACACACACCTTGTTATCGGAGTCACCTAGTGCAG” the figure was 9820 fluorescence intensity (a.u.); with “ATTTACCGGCCTCACTTCCCAGCCCGACTGGCAACAATTACGGAGTCACCTAGTGCAG”, 10600 fluorescence intensity (a.u.).
As for “TTTAGCACTGTTCATGTTCAACATTTGACCGTTCGTCTTACGGAGTCACCTAGTGCAG”, the binding signal was 11400 fluorescence intensity (a.u.).
For “CGACGTTGTTCAGGTGGTCTCAACCTTTTTCTTGGTTTATCGGAGTCACCTAGTGCAG”, the binding signal was 10300 fluorescence intensity (a.u.).
“CTGTAATGAAGTTCTGAGTGCCTTGTTACTTTATCACTTCCGGAGTCACCTAGTGCAG”: the binding signal is 8760 fluorescence intensity (a.u.).
Take “TCTCCATCACCACCAATCTTTATCAACTTCGACAACTTCCCGGAGTCACCTAGTGCAG”: the binding signal is 9590 fluorescence intensity (a.u.).
Take “ACGTCCTATCATGAATTTTGCCTTTGTCGTCCTGCAACCACGGAGTCACCTAGTGCAG”: the binding signal is 8280 fluorescence intensity (a.u.).
For “CCATATCATTTGACCAACTGTAAAAGAATGCTCATTTCCCCGGAGTCACCTAGTGCAG”, the binding signal is 8160 fluorescence intensity (a.u.).
On to “TTCAACTGCTCTCAACCTGATGCCTTGTATGAGATCAGAACGGAGTCACCTAGTGCAG”, for which the binding signal was 9240 fluorescence intensity (a.u.).
